Taken from: PubChem BioAssay AID686943 (Drosophila RNAi Screening Center, 2013)
The deposit covers about 23,000 reagents; this is an unselected part of those with a known target gene and a result. 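Extra replicates exist only for a retested subset of genes; insulin dose and duration not given; both raised and lowered dpERK matter.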 The numbers tell different reagents against one gene apart. Names joined by + are all predicted targets of the reagent. Not given: the amount of reagent, the time to read-out.

- Purpose: 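Fly genes whose loss alters ERK activation after insulin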 (primary screen)
- Cells: Drosophila S2R+ haemocyte-like cells expressing YFP-tagged ERK (Rolled)
- Reagents: long dsRNA against Drosophila genes
- Conditions: insulin stimulation versus unstimulated cells; dose and duration not given
- Read-out: 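Antibody staining for doubly phosphorylated ERK divided by ERK-YFP signal, as plate z-scores, in insulin-treated and untreated cells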
- Reading the numbers: replicate 1, z-score of dpERK with insulin and replicate 2, z-score of dpERK with insulin: higher = more active ERK per ERK-YFP after insulin; replicate 1, z-score of dpERK under basal conditions: higher = more basal active ERK per ERK-YFP; replicate 1, z-score of ERK-YFP with insulin: higher = more YFP-tagged ERK signal

| gene knocked down | reagent no. | replicate 1, z-score of dpERK with insulin | replicate 2, z-score of dpERK with insulin | replicate 1, z-score of dpERK under basal conditions | replicate 1, z-score of ERK-YFP with insulin |
| --- | --- | --- | --- | --- | --- |
| CG31038 | 1 | -0.41 | -0.37 | 0.37 | 0.29 |
| CG31038 | 2 | 0.05 | 0.43 | 2.27 | -0.82 |
| CG31038 | 3 | -0.42 | 0.05 | 0.53 | 0.27 |
| CG8483 | 1 | 0 | -0.01 | -0.41 | -1.05 |
| PGAP2 | 1 | 0.23 | -0.48 | -0.27 | 0.12 |
| CG3961 | 1 | -0.31 | -0.81 | -1.29 | -0.32 |
| CG3961 | 2 | -0.52 | 0.24 | -1.96 | 0.4 |
| CG18233 | 1 | 0.59 | -0.81 | 0.11 | 0.31 |
| Mcm2 | 1 | -1.09 | 0.84 | 0.26 | 0.27 |
| Tpi | 1 | -0.15 | 0.47 | 0.5 | 0.17 |
| CG17217 | 1 | 0.24 | 0.32 | 1.44 | -0.08 |
| CG32829 | 1 | 2.68 | 1.48 | -0.42 | -1.96 |
| CG32829 | 2 | 1.55 | 0.59 | 4.23 | -2.83 |
| CG15695 | 1 | -0.18 | -0.26 | -0.45 | 0.47 |
| santa-maria | 1 | -0.43 | -0.49 | -0.5 | 0.17 |
| santa-maria | 2 | 0.21 | -0.39 | 0.09 | -0.06 |
| mRpS17 | 1 | -0.25 | 0.26 | -0.82 | 1.89 |
| CNPYb | 1 | 0.33 | 0.19 | -0.77 | -0.2 |
| Nf-YA | 1 | -0.89 | -0.39 | -1.24 | -0.16 |
| Pmm2 | 1 | 0.48 | 0.11 | 0.46 | -0.11 |
| Ppa | 1 | 0.4 | -0.83 | 1.2 | -0.27 |
| CG18528 | 1 | 0.17 | 0 | 0.19 | -0.74 |
| CG17048 | 1 | 0.34 | 0.17 | 0.17 | 0.47 |
| CG7369 | 1 | -0.51 | 0.87 | 0.16 | 0.77 |
| Cyp313a2 | 1 | 0.07 | 0.1 | 0.74 | 0.36 |
| Ref2 | 1 | 0.12 | 0.8 | 1.38 | 0.05 |
| Cys | 1 | 0.85 | 1.01 | -0.78 | 0.22 |
| Tsc1 | 1 | -0.88 | -2 | -0.26 | 0.27 |
| CG13059 | 1 | -0.58 | -0.83 | 0.78 | 0.03 |
| CG3568 | 1 | -0.23 | 0 | 0.04 | 0.64 |
| CG1602 | 1 | -0.5 | -0.25 | 0.44 | 0.47 |
| YL-1 | 1 | 1.41 | 1.09 | 0.35 | -0.81 |
| IP3K1 | 1 | 0.01 | -0.33 | 0.12 | 0.07 |
| CG42634 + CG42635 | 1 | -0.39 | 0.31 | 0 | 0.22 |
| Spec2 (retired record) | 1 | 0.04 | 0.3 | 0.2 | -0.25 |
| Spec2 (retired record) | 2 | -1.43 | -1.46 | 0.01 | -0.47 |
| CG31204 | 1 | -0.22 | 0.99 | -0.15 | -0.3 |
| CR11235 | 1 | -0.15 | 0.02 | 0.36 | 0.56 |
| COX5A | 1 | -1.17 | -2.22 | -1 | 4.5 |
| CG1631 | 1 | 0.61 | 0.68 | 0.94 | 0.69 |
| Nmdar2 | 1 | 0.79 | 0.18 | 0.66 | 0.2 |
| Nmdar2 | 2 | 1.47 | 0.09 | 0.59 | -0.33 |
| Nmdar2 | 3 | 0.92 | 0.11 | 0.83 | -0.48 |
| CG9686 | 1 | -1.03 | -0.64 | 0.9 | 0.02 |
| BRWD3 | 1 | -0.32 | 0.5 | 0.2 | 0.32 |
| BRWD3 | 2 | -0.52 | -2.42 | -2.14 | -1.02 |
| CG1690 | 1 | 0.92 | 1.9 | 0.98 | 0.56 |
| CG14414 | 1 | 0.99 | 0.51 | -0.53 | -0.87 |
| CheA7a | 1 | 0.79 | 0.27 | 0.41 | 0.25 |
| Rgk1 | 1 | -0.12 | 0.26 | 0.51 | 0.15 |
| Rgk1 | 2 | 1.39 | 1.97 | 1.12 | -0.79 |
| Rgk1 | 3 | 1.18 | 0.54 | 1.5 | -0.17 |
| Rgk1 | 4 | 0.67 | 0.18 | -0.08 | 0.78 |
| Rgk1 | 5 | -5.29 | -3.49 | -4.23 | -1 |
| RanBP3 | 1 | -0.69 | 0.63 | -0.32 | 1.39 |
| CG6023 | 1 | 0.2 | 0.49 | -0.68 | 1.42 |
| CR17024 | 1 | -0.35 | 0.29 | 0.76 | 0.67 |
